The supplement of paper PMC10331698
± gives the standard deviation of the averaged measurements. Small differences around the control level are noise.

Experiments:
Experiment in all cases: level (log10 ratio to DMSO vehicle control); higher = higher biomarker level / cell amount than vehicle control
[1] = compound: FC(F)(F)C(F)(F)C(F)(F)C(F)(F)C(F)(F)C(F)(F)C(F)(F)CCI [1-Iodo-1H,1H,2H,2H-perfluorononane]; conditions: in DMSO
Method: (§1)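 BioMAP Diversity Plus panel of 12 human primary cell co-culture systems (3C, 4H, LPS, SAg, BT, BF4T, BE3C, CASM3C, HDF3CGF, KF3CT, MyoF, Mphg). Compounds were added 1 h before stimulation and left for 24 h (MyoF 48 h; BT 72 h for soluble read-outs or 6 d for IgG). Biomarkers were read by ELISA, cytotoxicity by SRB, PBMC viability and proliferation by Alamar Blue. Each well value was divided by the mean of 8 DMSO control wells on the same plate and log10 transformed; duplicate blinded samples were tested at 4 concentrations.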

Perfluorooctanamide = compound: NC(=O)C(F)(F)C(F)(F)C(F)(F)C(F)(F)C(F)(F)C(F)(F)C(F)(F)F [Perfluorooctanamide]; conditions: 2200 nM; in DMSO
Method: as §1

[2] = compound: C=CC(=O)OCC(F)(F)C(F)(F)C(F)(F)C(F)(F)COC(=O)C=C [1H,1H,6H,6H-Perfluorohexane-1,6-diol diacrylate]; conditions: 2200 nM; in DMSO
Method: as §1

[3] = compound: FC(F)C(F)(F)COCC1CO1 [((2,2,3,3-Tetrafluoropropoxy)methyl)oxirane]; conditions: 2200 nM; in DMSO
Method: as §1

[4] = compound: O=C(O)C(F)(F)C(F)(F)C(F)(F)C(F)(F)C(F)(F)C(F)(F)C(F)(F)C(F)F [9-H-Perfluorononanoic acid]; conditions: 2200 nM; in DMSO
Method: as §1

[5] = compound: FC(F)(F)C(F)(F)C(F)(F)C(F)(F)C(F)(F)C(F)(F)C(F)(F)I [1-Iodopentadecafluoroheptane]; conditions: in DMSO
Method: as §1

[6] = compound: O=S(=O)(Cl)C(F)(F)C(F)(F)C(F)(F)C(F)(F)C(F)(F)C(F)(F)C(F)(F)C(F)(F)F [Perfluoro-1-octanesulfonyl chloride]; conditions: 2200 nM; in DMSO
Method: as §1

[7] = compound: OCCC(F)(F)C(F)(F)C(F)(F)C(F)(F)C(F)(F)C(F)(F)C(F)(F)C(F)(F)F [8:2 Fluorotelomer alcohol]; conditions: 2200 nM; in DMSO
Method: as §1

[8] = compound: O=P(O)(O)CCC(F)(F)C(F)(F)C(F)(F)C(F)(F)C(F)(F)C(F)(F)C(F)(F)C(F)(F)F [((Perfluorooctyl)ethyl)phosphonic acid]; conditions: 2200 nM; in DMSO
Method: as §1

Perfluoropropanoic acid = compound: O=C(O)C(F)(F)C(F)(F)F [Perfluoropropanoic acid]; conditions: 2200 nM; in DMSO
Method: as §1

[9] = compound: O=C(O)C=CC(F)(C(F)(F)F)C(F)(F)F [3-(Perfluoroisopropyl)-2-propenoic acid]; conditions: in DMSO
Method: as §1

[10] = compound: O=C(O)C(F)(F)C(F)(F)OC(F)(F)F [Perfluoro-3-methoxypropanoic acid]; conditions: 2200 nM; in DMSO
Method: as §1

[11] = compound: O=C(O)C(F)(F)OC(F)(F)C(F)(F)OC(F)(F)C(=O)O [Perfluoro-3,6-dioxaoctane-1,8-dioic acid]; conditions: 2200 nM; in DMSO
Method: as §1

[12] = compound: C=C(C)C(=O)OCC(F)(F)C(F)(F)C(F)(F)F [2,2,3,3,4,4,4-Heptafluorobutyl methacrylate]; conditions: 2200 nM; in DMSO
Method: as §1

Perfluoroundecanoic acid = compound: O=C(O)C(F)(F)C(F)(F)C(F)(F)C(F)(F)C(F)(F)C(F)(F)C(F)(F)C(F)(F)C(F)(F)C(F)(F)F [Perfluoroundecanoic acid]; conditions: in DMSO
Method: as §1

[13] = compound: O=C(O)C(F)(F)OC(F)(F)C(F)(F)OC(F)(F)C(F)(F)C(F)(F)C(F)(F)F [Perfluoro-3,6-dioxadecanoic acid]; conditions: 2200 nM; in DMSO
Method: as §1

Perfluorobutanoic acid = compound: O=C(O)C(F)(F)C(F)(F)C(F)(F)F [Perfluorobutanoic acid]; conditions: 2200 nM; in DMSO
Method: as §1

[14] = compound: OCC(F)(F)C(F)(F)C(F)(F)C(F)(F)C(F)(F)C(F)(F)C(F)(F)C(F)(F)C(F)(F)C(F)(F)C(F)(F)F [11:1 Fluorotelomer alcohol]; conditions: in DMSO
Method: as §1

## CASM3C:M-CSF
[1]; 740 nM
  level (log10): 0.0065 ± 0.023
[1]; 2200 nM
  level (log10): -0.007 ± 0.013
[1]; 6700 nM
  level (log10): -0.0035 ± 0.0078
[1]; 20000 nM
  level (log10): 0.0125 ± 0.028
Perfluorooctanamide
  level (log10): 0.005 ± 0.0014
[2]
  level (log10): 0.0395 ± 0.086
[3]
  level (log10): -0.0125 ± 0.044
[4]
  level (log10): -0.0025 ± 0.066
[5]; 740 nM
  level (log10): -0.0165 ± 0.015
[5]; 2200 nM
  level (log10): -0.014 ± 0.024
[5]; 6700 nM
  level (log10): -0.0285 ± 0.019
[5]; 20000 nM
  level (log10): 0.0225 ± 0.052
[6]
  level (log10): 0.0075 ± 0.026
[7]
  level (log10): -0.0025 ± 0.033
[8]
  level (log10): 0.039 ± 0.034
Perfluoropropanoic acid
  level (log10): -0.025 ± 0.058
[9]; 2200 nM
  level (log10): 0.0195 ± 0.037
[9]; 6700 nM
  level (log10): -0.0195 ± 0.0078
[9]; 20000 nM
  level (log10): -0.0175 ± 0.011
[9]; 60000 nM
  level (log10): 0.009 ± 0.034
[10]
  level (log10): 0.0245 ± 0.043
[11]
  level (log10): 0.041 ± 0.057
[12]
  level (log10): 0.0235 ± 0.015
Perfluoroundecanoic acid; 740 nM
  level (log10): 0.001 ± 0.068
Perfluoroundecanoic acid; 2200 nM
  level (log10): 0.013 ± 0.016
[13]
  level (log10): -0.0025 ± 0.0064
Perfluorobutanoic acid
  level (log10): 0.011 ± 0.0014
[14]; 370 nM
  level (log10): 0.007 ± 0.048
[14]; 1100 nM
  level (log10): -0.026 ± 0.044
[14]; 3300 nM
  level (log10): 0.006 ± 0.031
[14]; 10000 nM
  level (log10): 0.017 ± 0.0099
